No constants are given. Whether binding was seen depends on the method and setting. Some results given as binding are weak or reduced against the parent protein; the word gives no strength.
Target: mCherry-Smn (transfected SH-SY5Y cells) (zebrafish) (UniProt Q9W6S8)
Assay: fluorescence correlation spectroscopy (brightness analysis); confocal FCS in the cytoplasm of transfected SH-SY5Y cells; average intensity plotted against number of particles; mCherry-Smn against mCherry, and mCherry-Smn with co-transfected untagged Smn (125 ng of each plasmid)

Sequences of proteins named here, by UniProt entry; tags and fusion partners are left off.
UniProt Q9W6S8: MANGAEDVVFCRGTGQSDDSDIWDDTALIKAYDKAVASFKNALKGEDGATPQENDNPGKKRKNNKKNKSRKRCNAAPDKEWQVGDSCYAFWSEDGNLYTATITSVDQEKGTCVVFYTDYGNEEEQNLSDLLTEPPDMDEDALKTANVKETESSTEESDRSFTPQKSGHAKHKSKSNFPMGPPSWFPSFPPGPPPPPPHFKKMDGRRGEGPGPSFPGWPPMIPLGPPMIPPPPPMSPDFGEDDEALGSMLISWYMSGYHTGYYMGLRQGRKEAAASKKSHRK

“untagged Smn (transfected SH-SY5Y cells) (from UniProt Q9W6S8 1-281)” was tested, and the binding was “binds”.

“mCherry-Smn (transfected SH-SY5Y cells) (from UniProt Q9W6S8 1-281)” was tested, and the binding was “binds”.

Source: article PMC8385639
